PubChem BioAssay AID686937, Drosophila RNAi Screening Center – 2013
Purpose: 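Genes whose loss weakens secretory pathway function in fly cells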 (primary screen). Cells: Drosophila S2 cells expressing secreted horseradish peroxidase. Reagent: long dsRNA against Drosophila genes. Duration: about 5.5 days (5 days dsRNA, then 12 h reporter induction). Treatment: reporter expression induced after 5 days of dsRNA, read 12 h later; inducer not stated. Measurement: 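After 5 days of dsRNA and 12 h of reporter induction, medium peroxidase read by chemiluminescence and scored as per-plate z-score; higher values mean more reporter released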. Direction: z-score: higher = more reporter secreted into medium.
The deposit covers about 23,000 reagents; this is an unselected part of those that have a named target and a result. 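Reduced-secretion tags in replicate 1 do not always agree with the z-scores; no criterion for assigning the tags was given.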 Further read-outs or replicates are left out here. No sequences are given here. The record does not give: the amount of reagent.

For CG15253 [SID104181663], what does the deposit list?
z-score, replicate 1: 0.18

With CG11839 [SID104194190], how do the results read?
z-score, replicate 1: 0.4

For mRpL12 [SID104190259], how do the results read?
z-score, replicate 1: 0.18

With BNIP3 [SID104191553], what was measured?
z-score, replicate 1: 0.15

For l(3)mbt [SID104196775], what does the deposit list?
z-score, replicate 1: 0.25

Which result is listed for CG32718 [SID104197330]?
z-score, replicate 1: 0.49

With CG13108 [SID104181998], what was measured?
z-score, replicate 1: -0.05

For Ccz1 [SID104188231], how do the results read?
z-score, replicate 1: -0.41

With CG8916 [SID104199912], how do the results read?
z-score, replicate 1: 0.34

How did the screen score Ance [SID104181657]?
z-score, replicate 1: 0.39

With CG31345 [SID104193985], how do the results read?
z-score, replicate 1: -0.33

With CG31345 [SID104194639], how do the results read?
z-score, replicate 1: -0.53

Which result is listed for Pdk1 [SID104188474]?
z-score, replicate 1: -1

What is on record for Su(Tpl) [SID104190746]?
z-score, replicate 1: -3.01

For TfIIA-S [SID104196675], how do the results read?
z-score, replicate 1: -0.77

For CG30355 [SID104201570], how do the results read?
z-score, replicate 1: 0.22

With CG30447 [SID104185612], what was measured?
z-score, replicate 1: 0.39

For Eig71Eb [SID104190941], what does the deposit list?
z-score, replicate 1: 0.38

What did the screen give for Kaz1-ORFB [SID104188461]?
z-score, replicate 1: 0.32

Which result is listed for CG14502 [SID104186265]?
z-score, replicate 1: 0.07

With ND-51L1 [SID104185864], what does the deposit list?
z-score, replicate 1: 0.1

For CG12360 (retired record) [SID104194297], what does the deposit list?
z-score, replicate 1: 0.41

What did the screen give for CG9004 [SID104188409]?
z-score, replicate 1: 0.14

With CG43187 [SID104185399], how do the results read?
z-score, replicate 1: 0.2

With CG9394 [SID104184342], how do the results read?
z-score, replicate 1: 0.01

How did the screen score awd [SID104196698]?
z-score, replicate 1: 0.43

What is on record for Dmtn [SID104192305]?
z-score, replicate 1: 0.37
